Experimental data published in patent US20050271661A1, “Methods and reagents for the treatment of immunoinflammatory disorders” (priority 2004, published 2005).
Some results were stated once for a whole list of compounds, not compound by compound.

System: JNK
Assay: JNK activation (phosphorylation) western blot, activated primary T cells
Type: cell-based, human
Settings: primary T cells activated 30 minutes
Experimental: Purified primary human T-cells (10^7 T-cells at 1×10^6 cells/ml) were pretreated with various drugs for 30 min at 37° C. and then stimulated for 30 minutes with PMA and ionomycin. Cells were then pelleted and extracted with 2× protein load dye (Invitrogen, NP0008). Total cell lysates were boiled and centrifuged before loading. 10-15 μl of lysate (approximately 250,000 cells) per lane was run on a 10-12% Tris-Bis gel, or a 3-8% Tris-Acetate gel (precast from Invitrogen). Proteins were immunoblotted onto immobilon PVDF membrane (Millipore) for 30 min using an Owl Semi-Dry electroblotting system. Membranes were blocked with 4% milk for two hours and then incubated with appropriate primary antibodies, washed three times and then probed with secondary antibodies. Chemi-glow™ (Alpha Innotech) chemilluminescent detection solutions were added and image visualized and captured using an Alpha Imager 8900 (Alpha Innotech). NFAT1 was visualized using an antibody obtained from BD Transduction Laboratory (#610703). IκB-alpha was visualized using an antibody from Santa Cruz Biotechnology (#sc371). Mitogen activated protein kinases (MAPK) were visualized using the following antibodies obtained from Cell Signaling: ERK p44/p42 (phospho, #9101; total, #9102); p38 (phospho, #9211; total, #9212); and JNK/SAPK (phospho, #9251; total, #9252). […]

Fc1ccc([C@@H]2CCNC[C@H]2COc2ccc3c(c2)OCO3)cc1 [paroxetine]
concentration above which JNK activation is inhibited: 10 to 20 µM

Clc1ccc2c(c1)C(N1CCNCC1)=Nc1ccccc1O2 [amoxapine]
concentration above which JNK activation is inhibited: 10 to 20 µM
